Article PMC10280842
No constants are given. Whether binding was seen depends on the method and setting. In cells and extracts the contact can be indirect. Some entries that bind do so weakly or less than the wild type.

The chains behind the UniProt entries cited, without tags or fusion partners.
UniProt P01106: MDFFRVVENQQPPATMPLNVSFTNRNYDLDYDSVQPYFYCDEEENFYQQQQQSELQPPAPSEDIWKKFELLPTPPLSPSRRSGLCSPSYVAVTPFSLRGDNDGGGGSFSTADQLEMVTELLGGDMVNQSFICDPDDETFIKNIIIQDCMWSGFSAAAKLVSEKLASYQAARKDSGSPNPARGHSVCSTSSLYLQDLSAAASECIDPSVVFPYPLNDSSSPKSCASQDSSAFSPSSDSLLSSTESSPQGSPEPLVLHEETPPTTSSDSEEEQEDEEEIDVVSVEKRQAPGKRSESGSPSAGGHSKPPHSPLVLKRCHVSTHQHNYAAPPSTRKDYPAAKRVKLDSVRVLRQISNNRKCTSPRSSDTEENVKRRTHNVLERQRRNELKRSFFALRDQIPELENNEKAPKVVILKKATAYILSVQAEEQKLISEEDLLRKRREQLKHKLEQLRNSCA
UniProt Q9UNS1: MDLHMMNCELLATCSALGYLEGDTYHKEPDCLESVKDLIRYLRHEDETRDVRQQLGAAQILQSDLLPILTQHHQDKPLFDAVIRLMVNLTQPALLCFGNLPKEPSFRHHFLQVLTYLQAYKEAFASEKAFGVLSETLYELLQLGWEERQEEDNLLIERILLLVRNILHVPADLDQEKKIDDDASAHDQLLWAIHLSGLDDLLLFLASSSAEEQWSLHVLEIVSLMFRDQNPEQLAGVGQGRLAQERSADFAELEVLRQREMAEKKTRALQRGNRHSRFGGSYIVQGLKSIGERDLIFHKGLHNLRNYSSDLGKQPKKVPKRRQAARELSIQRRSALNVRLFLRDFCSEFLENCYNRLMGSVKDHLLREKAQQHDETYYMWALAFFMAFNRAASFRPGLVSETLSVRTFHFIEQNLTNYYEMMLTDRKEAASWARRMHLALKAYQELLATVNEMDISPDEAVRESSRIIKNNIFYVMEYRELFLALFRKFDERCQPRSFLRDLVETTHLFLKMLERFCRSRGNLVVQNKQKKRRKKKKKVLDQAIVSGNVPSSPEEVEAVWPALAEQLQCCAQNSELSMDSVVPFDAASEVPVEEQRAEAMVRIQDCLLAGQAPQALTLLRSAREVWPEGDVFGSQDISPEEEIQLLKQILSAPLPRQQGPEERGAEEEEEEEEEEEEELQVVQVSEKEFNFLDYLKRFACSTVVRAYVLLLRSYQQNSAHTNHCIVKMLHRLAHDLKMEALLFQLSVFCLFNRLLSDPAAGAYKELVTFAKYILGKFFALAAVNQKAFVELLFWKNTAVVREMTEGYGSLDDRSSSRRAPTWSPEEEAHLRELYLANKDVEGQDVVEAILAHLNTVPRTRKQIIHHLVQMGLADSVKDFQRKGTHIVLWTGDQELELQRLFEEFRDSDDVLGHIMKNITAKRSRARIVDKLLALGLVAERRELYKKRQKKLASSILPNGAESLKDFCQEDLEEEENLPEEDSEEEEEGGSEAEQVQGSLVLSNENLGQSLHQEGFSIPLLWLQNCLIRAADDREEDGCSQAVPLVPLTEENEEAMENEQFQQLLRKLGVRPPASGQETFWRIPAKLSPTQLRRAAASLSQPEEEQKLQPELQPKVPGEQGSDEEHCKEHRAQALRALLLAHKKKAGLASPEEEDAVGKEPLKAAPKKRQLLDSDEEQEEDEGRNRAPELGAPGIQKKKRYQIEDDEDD

Molecular target: c-Myc (human (endogenous in MCF-7 and BT-20)) (UniProt P01106)
Experiment: co-IP; lysates of MCF-7 and BT-20 cells; antibody added to the lysate 1 h at room temperature, then protein A/G beads 1 h at room temperature (magnetic protein A/G IP/Co-IP kit); washed with lysis buffer; Western blot

With TIMELESS (from UniProt Q9UNS1 1-1208) the binding was “binds”.
